Over roughly 33,000 sequences, “E-score (-0.5 to 0.5)” has its median near -0.016; the highest 2% begin near 0.3. Some of the results follow.
What follows are sequences tested against T1, Yer184c (UniProt P39961) (assay: PBM E-score (8-mer binding enrichment) (E-score (-0.5 to 0.5)); higher = stronger / more preferred TF binding). Conditions: protein concentration: 100 nM; construct: GST-full length.
T1 sequence: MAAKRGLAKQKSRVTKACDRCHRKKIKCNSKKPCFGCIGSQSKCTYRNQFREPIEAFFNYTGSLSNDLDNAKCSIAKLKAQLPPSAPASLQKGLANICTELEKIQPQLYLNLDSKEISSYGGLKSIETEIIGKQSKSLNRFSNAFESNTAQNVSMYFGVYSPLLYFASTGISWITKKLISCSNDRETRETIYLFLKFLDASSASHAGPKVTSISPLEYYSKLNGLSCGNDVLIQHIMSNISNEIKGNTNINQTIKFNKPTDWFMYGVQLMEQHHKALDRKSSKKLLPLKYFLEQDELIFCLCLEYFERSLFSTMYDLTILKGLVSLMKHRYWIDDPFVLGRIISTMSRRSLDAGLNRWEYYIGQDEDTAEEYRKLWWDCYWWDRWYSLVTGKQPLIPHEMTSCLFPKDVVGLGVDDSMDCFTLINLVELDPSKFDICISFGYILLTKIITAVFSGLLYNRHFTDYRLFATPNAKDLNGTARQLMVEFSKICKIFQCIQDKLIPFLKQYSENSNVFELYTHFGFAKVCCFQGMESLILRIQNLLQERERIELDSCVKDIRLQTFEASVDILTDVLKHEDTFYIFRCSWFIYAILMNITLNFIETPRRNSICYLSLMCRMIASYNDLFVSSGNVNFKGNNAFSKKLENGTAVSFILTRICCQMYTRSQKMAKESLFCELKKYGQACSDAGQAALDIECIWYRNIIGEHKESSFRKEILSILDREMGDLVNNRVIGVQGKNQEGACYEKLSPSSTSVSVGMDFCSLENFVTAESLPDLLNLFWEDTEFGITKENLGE
Method: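 Universal 'all 10-mer' protein binding microarrays (Agilent AMADID 015681) probed with GST-tagged S. cerevisiae TFs (full-length or DBD) made by in vitro transcription/translation (PURExpress), about 100-200 nM. Bound TF was detected with fluorescent anti-GST. Each ungapped 8-mer (which stands for itself and its reverse complement) is scored by the PBM enrichment score (E-score), a modified Wilcoxon-Mann-Whitney statistic from -0.5 to +0.5, computed with the Universal PBM Analysis Suite. Scale: above 0.35 generally sequence-specific binding.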

Sequence | PBM E-score
ACCAACAG | -0.284
ACCCCGCC | 0.038
CCCGCCCA | -0.0857
AAATGCTT | 0.0617
AATCCGCC | -0.0628
CCGATCGG | 0.253
CTCCATGC | -0.19
ACGTTAGT | -0.0893
CCCCTTCA | -0.322
TCAGCACA | 0.00162
ACGGATGA | 0.0817
ATCCAGAT | -0.0292
GGCTAGGA | -0.166
GTTCGGAA | 0.402
AGTGGCGC | -0.194
GCGTACCA | -0.112
GGCAGACC | -0.217
GAGTCGGC | 0.0905
AGGGTGTG | -0.226
CTCTTTCA | -0.0217
CGTCAGAA | -0.167
ACCTTCGT | -0.021

Sequence | PBM E-score
AACGTCGA | 0.0544
CAAACGTG | 0.0252
CACAATAG | 0.0252
TAGCATAA | -0.0341
GGCCGGAA | 0.338
ACGGTAGC | 0.00911
CTCGCTTC | -0.0232
ACATATGG | -0.145
GGCGCAGA | 0.0115
CTACAACC | -0.0932
ATCCCCCA | -0.372
GAACGCCC | -0.0103
ACTGGAAG | -0.127
GCCTAAGC | -0.0314
ACGAGCGC | -0.208
AATTTGGC | 0.0884
AATTACGT | -0.0822
ATGTGATA | -0.0635
AAGACGGG | 0.0214
GACCGTAA | 0.0933
AGACGGAC | -0.086
CAGCTCTC | -0.127

Sequence | PBM E-score
CAGCAGTA | -0.0147
GCATTACC | -0.0836
TAGGACTA | -0.0313
AAATCTTG | -0.00799
AGGGTTTA | -0.0139
TCTTTAAA | 0.229
ATTGAGGG | -0.244
ATAAGTAT | 0.124
CCGCTCCC | -0.26
AGACTCAC | -0.118
CTTCGTTA | 0.00966
CAGGTTAG | -0.18
ATATCTAG | -0.0546
ATTCGCCG | 0.334
CGCGTAAG | 0.0146
CGACACCA | -0.0215
CAGCGCCA | -0.158
GTAGCGAA | 0.0477
CAATTATC | 0.205
CGATAGAG | -0.0138
CGCACTCA | 0.119
ATTCCAAA | 0.015

4 successive entries already listed:
Sequence | PBM E-score
AGGGTTTA | -0.0139
TCTTTAAA | 0.229
ATTGAGGG | -0.244
ATAAGTAT | 0.124

Remaining list, next part:

Sequence | PBM E-score
GGCCGGCA | 0.415
TGACCACA | -0.244
AAACATAG | -0.121
ACTTCTAG | -0.28
CCATTGTC | -0.104
AAGTGCGG | 0.0901
ATTGGGGG | -0.238
AGCCGTAG | 0.155
ACATGTTC | -0.0591
GCCAGTAA | -0.0434
ACAATAGA | 0.0591
AATTGTGC | 0.00487
CGGCCGCC | 0.209
CCTATCGA | -0.107
CTCCCACC | -0.232
GAGGCCGA | 0.0757
CGTCAGGC | -0.07
GCGTACGA | 0.0312
TAATAGGA | 0.0974
CGTCTAGA | -0.0942

2 entries from above, with tabs:
Sequence	PBM E-score
CACAATAG	0.0252
TAGCATAA	-0.0341

From the supplement of paper PMC3334620
